# In PubChem BioAssay AID1347131 (National Center for Advancing Translational Sciences (NCATS), 2019):
# In all, about 410,000 compounds went through this assay and about 2,000 (0.49%) were called active. Inconclusive results, whose numbers are uncertain, are shown with a selection of clear calls. Calls come from the whole dose curve; tested in HEK293 reporter line. Potencies of inconclusive entries are doubtful fits and often do not repeat.
# Assay: qHTS Assay for Foot and Mouth Disease Virus Antivirals: Primary Screen against the MLPCN compound library; note: nearly all actives have a fitted effect of over 55% in size
# Conditions: FMDV antiviral cell-based qHTS; activity, negative = inhibition: at 57.9 µM (top of the series)
# Potency is the fitted concentration of half-maximal effect.
Compound,Potency,"activity, negative = inhibition"
CCOC(=O)CSc1nc(C(C)(C)C)nc2ccccc12,"inconclusive: 22.4 µM [inhibitor, partial curve, poor fit]",–
O=C(/C=C\c1ccccc1OC(=O)c1ccccc1F)c1cc2ccccc2o1,"inconclusive: 39.8 µM [inhibitor, single point]",–
CC(=O)Nc1ccc(S(=O)(=O)Nc2nc3ccccc3s2)cc1,–,inactive: 135%
COc1cccc(NC(=O)c2nc(S(C)(=O)=O)ncc2Cl)c1,"inconclusive: 22.4 µM [inhibitor, partial curve, poor fit]",–
COCCn1c(C)cc(C(=O)CSc2nc(C)c(C)c(C)n2)c1C,"inconclusive: 20 µM [inhibitor, partial curve, poor fit]",–
Nc1c(S(=O)(=O)c2cccs2)c2nc3ccccc3nc2n1/N=C/c1cccc(O)c1,"inconclusive: 39.8 µM [inhibitor, partial curve, poor fit]",–
COc1ccc(CC(N)c2csc(NC(=O)NC(c3ccccc3)c3ccccc3)n2)cc1 (stereo not drawn),"inconclusive: 5.01 µM [inhibitor, partial curve]",–
CC(=O)c1ccc(S(=O)(=O)N2CCN(CCOc3ccc(Br)cc3)CC2)cc1,"inconclusive: 17.8 µM [inhibitor, partial curve, poor fit]",–
C=C1C(=O)C2=CC1CCC(=O)C1(C)CCC(OC(C)=O)C(C)(C)C1CC2O (stereo not drawn),"inconclusive: 7.94 µM [inhibitor, full curve, poor fit]",–
CCc1nc(SCC(=O)Nc2ccc(F)cc2F)c2c(=O)n(C)c(=O)n(C)c2n1,–,inconclusive: -33% [inhibitor]
CN(Cc1cccs1)c1nc(-c2cccnc2)nc2ccccc12,"inconclusive: 31.6 µM [inhibitor, partial curve, poor fit]",–
Cc1oc(-c2ccc(Cl)cc2)nc1CN1CCCC(C(=O)NCCCN2CCCC2=O)C1 (stereo not drawn),active: 7.94 µM,–
COc1ccc(CCC(C)N2CCc3ccccc3C2)cc1 (stereo not drawn),"inconclusive: 14.1 µM [inhibitor, partial curve, poor fit]",–
CC(C)c1ccc(/C=C2\SC(=S)N(CCC(=O)N3CCCCC3CCO)C2=O)cc1 (stereo not drawn),"inconclusive: 11.2 µM [inhibitor, partial curve, poor fit]",–
CSc1nc2ccc(NS(=O)(=O)c3ccc4c(c3)OCCO4)cc2s1,"inconclusive: 5.01 µM [inhibitor, full curve]",–
CCc1ccn2cc(-c3ccc4c(c3)OCO4)nc2c1,"inconclusive: 8.91 µM [inhibitor, partial curve, poor fit]",–
O=C(c1ccco1)N1CCN(c2ncnc3c(-c4ccc(Cl)cc4)nsc23)CC1,–,inactive: -30.7%
Nc1nc2ccccc2n1C(=O)c1ccc(F)cc1,active: 12.6 µM,–
CN(CC#CCC(c1ccccc1)c1ccccc1)C(C)(C)C,"inconclusive: 10 µM [inhibitor, partial curve]",–

# By substructure: those above containing a thiophene ring, fused or not
Compound,Potency,"activity, negative = inhibition"
Nc1c(S(=O)(=O)c2cccs2)c2nc3ccccc3nc2n1/N=C/c1cccc(O)c1,"inconclusive: 39.8 µM [inhibitor, partial curve, poor fit]",–
CN(Cc1cccs1)c1nc(-c2cccnc2)nc2ccccc12,"inconclusive: 31.6 µM [inhibitor, partial curve, poor fit]",–

# The list goes on:

Compound,Potency,"activity, negative = inhibition"
N#C/C(=C/c1ccc(N2CCCCCC2)o1)c1cccc(F)c1,"inconclusive: 39.8 µM [inhibitor, single point]",–
COc1ccccc1N1CCN(S(=O)(=O)c2ccc(F)c(C(=O)Nc3ccc(Cl)cc3C(F)(F)F)c2)CC1,"inconclusive: 7.94 µM [inhibitor, partial curve, poor fit]",–
COc1ccc(Cl)cc1C(=O)Nc1nc2ccccc2[nH]1,"inconclusive: 11.2 µM [inhibitor, partial curve, poor fit]",–
Cc1ccc(-n2nnc(-c3nccs3)n2)cc1,"inconclusive: 6.31 µM [inhibitor, full curve]",–
NS(=O)(=O)c1ccc(N2N=C(c3ccc(Br)cc3)CC2c2ccc(F)cc2)cc1 (stereo not drawn),"inconclusive: 22.4 µM [inhibitor, partial curve, poor fit]",–
COc1ccc(CCNc2oc(Cc3cccc4ccccc34)nc2C#N)cc1OC,"inconclusive: 28.2 µM [inhibitor, partial curve, poor fit]",–
O=C(CCCN1C(=O)c2cccnc2Oc2ccc(Cl)cc21)NCc1ccc(F)cc1,"inconclusive: 22.4 µM [inhibitor, single point]",–
Cc1cccc(Nc2sc(C(=O)c3ccc(Cl)cc3)c(N)c2C(N)=O)c1,"inconclusive: 10 µM [inhibitor, partial curve]",–
CCCc1nc(NCc2ccccn2)c2nnn(Cc3ccccc3F)c2n1,"inconclusive: 25.1 µM [inhibitor, partial curve, poor fit]",–
CCOC(=O)N1C(=O)[C@](c2ccc(Cl)cc2)(C(C)C)N1C(=O)OCC,"inconclusive: 28.2 µM [inhibitor, partial curve, poor fit]",–
CCOC(=O)Cn1cc(/C=C/[N+](=O)[O-])c2ccccc21,"inconclusive: 28.2 µM [inhibitor, partial curve, poor fit]",–
CCOc1ccc(C(=O)N[C@H](C(=O)N2CCN(c3ncccn3)CC2)C(C)C)cc1,–,inconclusive: -31.1% [inhibitor]
Cc1ccc(NC(=O)c2nc(S(=O)(=O)Cc3ccc(F)cc3)ncc2Cl)cc1C,"inconclusive: 28.2 µM [inhibitor, partial curve, poor fit]",–
Cc1ccc(C(=O)Nc2ccc(N3CCN(C(=O)c4cccs4)CC3)cc2)c(Cl)c1,"inconclusive: 17.8 µM [inhibitor, single point]",–
CC1CCc2nc(NC(=O)C3COc4ccccc4O3)sc2C1 (stereo not drawn),"inconclusive: 15.8 µM [inhibitor, partial curve, poor fit]",–
Cc1sc2ncnc(N3CCN(C(=O)c4ccco4)CC3)c2c1C,"inconclusive: 14.1 µM [inhibitor, partial curve]",–
C=CCN1C(=O)/C(=C/c2ccc(Br)s2)C(=O)NC1=S,"inconclusive: 31.6 µM [inhibitor, partial curve, poor fit]",–
Cc1ccc(C2=NC(C)(C)N=C2SCC(=O)Nc2ccc(Cl)cc2)cc1,"inconclusive: 31.6 µM [inhibitor, partial curve, poor fit]",–
CCOC(=O)C1CCCN(C(=O)Cn2ncc3c(C)n(Cc4ccc(Cl)cc4)c(C)c3c2=O)C1 (stereo not drawn),"inconclusive: 17.8 µM [inhibitor, partial curve, poor fit]",–
